Test results taken from PubChem BioAssay (EPA / NIEHS).
Inconclusive means that the source gave no clear call. Such entries were picked first, then a sample of the others. For some assays here: Potencies of inconclusive entries are doubtful fits and often do not repeat. Active and inactive are the calls of the source. Rule for the calls: active = hit-call score of the fitted dose curve at least 0.9, where 1 is the maximum; inconclusive = response in the unintended direction; inactive = score below 0.9.

Protein sequences, listed by entry. Tags and fused reporters are not part of them. Lines headed by an entry give the natural chain unless they say otherwise; changes in a name come on top.
UniProt P42575: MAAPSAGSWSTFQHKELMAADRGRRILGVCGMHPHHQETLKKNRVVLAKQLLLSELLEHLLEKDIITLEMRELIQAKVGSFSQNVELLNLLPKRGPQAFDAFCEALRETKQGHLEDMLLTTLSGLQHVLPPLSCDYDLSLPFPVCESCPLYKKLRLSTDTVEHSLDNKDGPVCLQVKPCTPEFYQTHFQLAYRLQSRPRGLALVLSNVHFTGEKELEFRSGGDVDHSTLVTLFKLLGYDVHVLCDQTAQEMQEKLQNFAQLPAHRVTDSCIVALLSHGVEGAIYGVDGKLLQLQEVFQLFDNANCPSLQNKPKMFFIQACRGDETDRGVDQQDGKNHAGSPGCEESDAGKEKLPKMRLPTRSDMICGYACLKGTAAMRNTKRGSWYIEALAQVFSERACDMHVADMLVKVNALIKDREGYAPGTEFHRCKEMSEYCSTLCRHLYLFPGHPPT
UniProt P28482, whole entry, looked up: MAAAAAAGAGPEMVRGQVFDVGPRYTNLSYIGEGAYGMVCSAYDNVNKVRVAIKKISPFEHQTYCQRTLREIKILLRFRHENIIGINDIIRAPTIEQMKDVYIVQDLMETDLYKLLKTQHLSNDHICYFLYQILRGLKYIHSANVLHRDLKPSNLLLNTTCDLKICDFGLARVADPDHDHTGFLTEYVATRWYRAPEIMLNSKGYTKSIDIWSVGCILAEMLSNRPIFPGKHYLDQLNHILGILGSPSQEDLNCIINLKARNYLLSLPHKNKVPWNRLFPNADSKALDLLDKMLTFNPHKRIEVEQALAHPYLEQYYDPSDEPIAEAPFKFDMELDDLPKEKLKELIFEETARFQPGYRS
UniProt O14965: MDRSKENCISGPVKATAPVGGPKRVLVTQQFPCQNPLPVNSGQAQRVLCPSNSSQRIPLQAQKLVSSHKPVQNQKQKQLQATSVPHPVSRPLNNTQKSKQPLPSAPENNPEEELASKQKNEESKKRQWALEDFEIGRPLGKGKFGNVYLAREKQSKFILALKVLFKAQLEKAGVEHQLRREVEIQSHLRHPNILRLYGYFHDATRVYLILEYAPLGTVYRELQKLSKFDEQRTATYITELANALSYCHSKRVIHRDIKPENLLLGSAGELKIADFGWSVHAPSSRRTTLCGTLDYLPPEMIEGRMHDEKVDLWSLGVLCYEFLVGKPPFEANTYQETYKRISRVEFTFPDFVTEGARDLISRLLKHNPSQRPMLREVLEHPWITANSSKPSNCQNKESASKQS
UniProt P08581: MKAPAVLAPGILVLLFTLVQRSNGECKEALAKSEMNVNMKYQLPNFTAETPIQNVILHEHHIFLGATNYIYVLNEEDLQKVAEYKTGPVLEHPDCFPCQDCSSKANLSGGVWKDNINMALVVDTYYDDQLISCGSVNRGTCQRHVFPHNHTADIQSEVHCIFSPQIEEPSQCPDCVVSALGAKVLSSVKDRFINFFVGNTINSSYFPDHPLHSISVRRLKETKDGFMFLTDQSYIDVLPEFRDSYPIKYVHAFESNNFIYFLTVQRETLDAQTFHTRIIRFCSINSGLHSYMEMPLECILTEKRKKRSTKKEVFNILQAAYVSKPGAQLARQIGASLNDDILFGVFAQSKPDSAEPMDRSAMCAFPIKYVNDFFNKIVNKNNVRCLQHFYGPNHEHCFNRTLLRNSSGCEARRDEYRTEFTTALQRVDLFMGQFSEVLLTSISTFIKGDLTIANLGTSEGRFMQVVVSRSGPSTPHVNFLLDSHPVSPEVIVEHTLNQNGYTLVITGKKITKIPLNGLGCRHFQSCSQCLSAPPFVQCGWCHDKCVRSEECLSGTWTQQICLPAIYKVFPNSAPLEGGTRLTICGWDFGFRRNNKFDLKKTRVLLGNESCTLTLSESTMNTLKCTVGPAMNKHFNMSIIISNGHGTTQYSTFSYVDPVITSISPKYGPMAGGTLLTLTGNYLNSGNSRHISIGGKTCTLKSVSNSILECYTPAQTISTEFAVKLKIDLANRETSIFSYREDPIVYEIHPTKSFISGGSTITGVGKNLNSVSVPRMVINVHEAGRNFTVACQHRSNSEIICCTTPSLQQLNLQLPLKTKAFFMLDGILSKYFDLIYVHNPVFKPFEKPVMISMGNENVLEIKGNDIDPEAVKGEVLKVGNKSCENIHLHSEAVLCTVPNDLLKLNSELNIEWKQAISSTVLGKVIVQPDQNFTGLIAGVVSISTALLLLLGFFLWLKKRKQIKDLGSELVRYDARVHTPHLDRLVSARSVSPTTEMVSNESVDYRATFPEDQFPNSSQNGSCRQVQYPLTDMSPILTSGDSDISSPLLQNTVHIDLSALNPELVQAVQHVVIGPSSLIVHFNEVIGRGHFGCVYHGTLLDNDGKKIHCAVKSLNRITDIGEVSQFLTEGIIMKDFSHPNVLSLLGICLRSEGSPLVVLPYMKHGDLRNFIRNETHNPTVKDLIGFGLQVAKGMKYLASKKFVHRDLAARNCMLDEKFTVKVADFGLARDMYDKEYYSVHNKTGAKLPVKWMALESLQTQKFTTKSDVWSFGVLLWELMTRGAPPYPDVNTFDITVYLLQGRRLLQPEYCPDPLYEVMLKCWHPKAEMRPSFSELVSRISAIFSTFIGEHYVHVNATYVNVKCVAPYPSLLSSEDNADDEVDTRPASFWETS
UniProt P60484: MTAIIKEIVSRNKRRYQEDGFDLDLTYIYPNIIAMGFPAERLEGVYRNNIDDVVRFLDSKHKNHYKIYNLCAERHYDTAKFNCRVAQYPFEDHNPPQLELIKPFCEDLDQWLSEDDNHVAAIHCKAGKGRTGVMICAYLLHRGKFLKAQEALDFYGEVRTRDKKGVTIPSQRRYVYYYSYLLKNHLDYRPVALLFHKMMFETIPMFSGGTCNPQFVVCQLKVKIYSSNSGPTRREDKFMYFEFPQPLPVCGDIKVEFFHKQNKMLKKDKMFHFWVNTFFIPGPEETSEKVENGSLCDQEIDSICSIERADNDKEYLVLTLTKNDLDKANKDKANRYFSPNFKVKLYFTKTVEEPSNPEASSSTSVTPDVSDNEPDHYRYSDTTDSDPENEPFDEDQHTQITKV
UniProt P29317, whole entry, looked up: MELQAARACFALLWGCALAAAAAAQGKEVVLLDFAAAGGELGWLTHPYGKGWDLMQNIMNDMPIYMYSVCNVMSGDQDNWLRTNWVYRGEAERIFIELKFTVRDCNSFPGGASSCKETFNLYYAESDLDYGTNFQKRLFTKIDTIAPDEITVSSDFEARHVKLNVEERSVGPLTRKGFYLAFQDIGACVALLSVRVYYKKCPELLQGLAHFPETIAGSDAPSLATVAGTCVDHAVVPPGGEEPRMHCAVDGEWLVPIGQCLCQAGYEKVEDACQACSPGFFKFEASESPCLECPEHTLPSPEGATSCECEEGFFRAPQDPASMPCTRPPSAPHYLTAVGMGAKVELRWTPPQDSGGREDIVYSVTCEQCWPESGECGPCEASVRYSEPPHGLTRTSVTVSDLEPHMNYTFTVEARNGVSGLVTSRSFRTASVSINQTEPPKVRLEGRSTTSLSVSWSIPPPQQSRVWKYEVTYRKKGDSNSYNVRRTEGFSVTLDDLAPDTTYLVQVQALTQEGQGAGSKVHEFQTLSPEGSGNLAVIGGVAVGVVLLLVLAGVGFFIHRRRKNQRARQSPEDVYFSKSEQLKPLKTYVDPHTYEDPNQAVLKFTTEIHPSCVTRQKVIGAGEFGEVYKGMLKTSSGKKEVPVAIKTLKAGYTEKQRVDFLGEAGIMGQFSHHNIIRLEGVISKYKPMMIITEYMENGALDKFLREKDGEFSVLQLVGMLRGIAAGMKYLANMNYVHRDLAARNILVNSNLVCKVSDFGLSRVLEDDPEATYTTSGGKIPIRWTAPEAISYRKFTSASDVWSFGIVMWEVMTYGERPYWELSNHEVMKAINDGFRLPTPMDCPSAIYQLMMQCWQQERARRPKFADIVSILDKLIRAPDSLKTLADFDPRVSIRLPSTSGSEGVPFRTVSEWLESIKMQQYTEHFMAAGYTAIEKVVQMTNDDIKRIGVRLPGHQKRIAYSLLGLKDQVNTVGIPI
UniProt O15111: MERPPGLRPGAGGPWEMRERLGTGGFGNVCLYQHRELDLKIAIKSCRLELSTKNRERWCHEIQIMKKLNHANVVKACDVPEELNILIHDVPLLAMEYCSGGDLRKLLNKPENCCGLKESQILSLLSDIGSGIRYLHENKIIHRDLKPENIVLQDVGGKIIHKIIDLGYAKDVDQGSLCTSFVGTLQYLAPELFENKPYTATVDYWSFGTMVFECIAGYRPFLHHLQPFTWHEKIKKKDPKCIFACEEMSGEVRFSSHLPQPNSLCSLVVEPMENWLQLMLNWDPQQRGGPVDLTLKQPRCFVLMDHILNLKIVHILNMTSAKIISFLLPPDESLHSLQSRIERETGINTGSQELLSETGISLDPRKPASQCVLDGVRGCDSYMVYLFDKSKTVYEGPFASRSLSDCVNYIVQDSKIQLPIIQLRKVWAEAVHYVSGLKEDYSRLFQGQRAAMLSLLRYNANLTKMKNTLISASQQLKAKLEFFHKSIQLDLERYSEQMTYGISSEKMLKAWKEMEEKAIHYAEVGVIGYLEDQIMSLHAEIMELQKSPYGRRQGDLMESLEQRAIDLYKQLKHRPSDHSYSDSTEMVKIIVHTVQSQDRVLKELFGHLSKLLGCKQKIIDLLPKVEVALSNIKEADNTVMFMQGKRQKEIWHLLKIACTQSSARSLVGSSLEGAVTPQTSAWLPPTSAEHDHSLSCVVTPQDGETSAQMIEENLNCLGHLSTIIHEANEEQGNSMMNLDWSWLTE
UniProt P11362, whole entry, looked up: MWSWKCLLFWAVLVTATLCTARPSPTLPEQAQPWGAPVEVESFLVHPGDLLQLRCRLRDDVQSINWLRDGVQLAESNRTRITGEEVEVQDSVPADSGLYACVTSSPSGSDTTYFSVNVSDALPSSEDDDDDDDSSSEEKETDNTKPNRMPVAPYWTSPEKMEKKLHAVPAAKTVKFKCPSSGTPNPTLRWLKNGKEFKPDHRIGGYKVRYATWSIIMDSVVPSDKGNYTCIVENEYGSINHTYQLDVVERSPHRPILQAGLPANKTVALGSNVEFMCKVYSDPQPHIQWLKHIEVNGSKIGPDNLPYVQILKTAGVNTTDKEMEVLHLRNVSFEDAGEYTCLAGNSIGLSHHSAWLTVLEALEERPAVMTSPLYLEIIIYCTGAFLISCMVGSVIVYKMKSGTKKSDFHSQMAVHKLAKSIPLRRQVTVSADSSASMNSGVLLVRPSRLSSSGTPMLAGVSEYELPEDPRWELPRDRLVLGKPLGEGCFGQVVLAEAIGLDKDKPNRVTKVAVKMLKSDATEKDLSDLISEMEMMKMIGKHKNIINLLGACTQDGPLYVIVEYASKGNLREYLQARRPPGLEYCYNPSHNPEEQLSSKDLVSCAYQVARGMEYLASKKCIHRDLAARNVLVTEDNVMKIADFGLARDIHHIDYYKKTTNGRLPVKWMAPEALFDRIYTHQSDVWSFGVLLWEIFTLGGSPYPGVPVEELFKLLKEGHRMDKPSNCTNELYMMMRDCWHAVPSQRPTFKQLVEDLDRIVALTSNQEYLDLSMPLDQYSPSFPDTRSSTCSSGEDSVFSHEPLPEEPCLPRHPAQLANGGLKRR
UniProt P37136: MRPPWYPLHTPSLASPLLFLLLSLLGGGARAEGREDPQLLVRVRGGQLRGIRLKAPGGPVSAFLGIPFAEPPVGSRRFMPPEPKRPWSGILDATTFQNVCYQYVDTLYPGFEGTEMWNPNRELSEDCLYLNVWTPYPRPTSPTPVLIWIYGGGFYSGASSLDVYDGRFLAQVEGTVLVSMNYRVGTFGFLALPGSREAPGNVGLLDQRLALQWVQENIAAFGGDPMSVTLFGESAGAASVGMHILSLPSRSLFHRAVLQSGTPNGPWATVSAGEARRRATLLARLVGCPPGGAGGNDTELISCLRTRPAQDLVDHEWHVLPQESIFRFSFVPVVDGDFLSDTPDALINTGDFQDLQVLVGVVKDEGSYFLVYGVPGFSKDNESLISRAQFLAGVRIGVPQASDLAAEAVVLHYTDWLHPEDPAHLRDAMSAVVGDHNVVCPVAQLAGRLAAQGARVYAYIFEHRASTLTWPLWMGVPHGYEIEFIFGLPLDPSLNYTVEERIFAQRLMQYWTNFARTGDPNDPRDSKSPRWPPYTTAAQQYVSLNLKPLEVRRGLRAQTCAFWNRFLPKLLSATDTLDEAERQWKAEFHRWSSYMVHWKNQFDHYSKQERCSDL

Key:
[1] = target: human Caspase 2 (CASP2), CASP2 (gene 835) (UniProt P42575); assay: NVS_ENZ_hCASP2: NovaScreen (NVS) Enzymatic Assay for human Caspase 2 (CASP2) (AID 2283135)
How it was run: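 E. coli-expressed enzyme in a cell-free protease assay, fluorescence read 1 h after dosing. Compounds at 25 uM in duplicate, with concentration-response up to 50 uM for hits; loss of signal against DMSO baseline.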

[2] = target: human Mitogen-Activated Protein Kinase 1 (MAPK 1), MAPK1 (gene 5594) (UniProt P28482); assay: NVS_ENZ_hMAPK1: NovaScreen (NVS) Enzymatic Assay for human Mitogen-Activated Protein Kinase 1 (MAPK 1) (AID 2283175)
How it was run: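 Cell-free recombinant human MAPK1 enzymatic assay, fluorescence/electrophoretic mobility shift read at 1 h; loss of signal vs DMSO. Primary screen in duplicate at 25 uM; actives (e.g. ≥30% inhibition) run as concentration-response up to 50 uM.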

[3] = target: human Aurora Kinase A - serine/threonine-protein Kinase 6 (AurA), AURKA (gene 6790) (UniProt O14965); assay: NVS_ENZ_hAurA: NovaScreen (NVS) Enzymatic Assay for human Aurora Kinase A - serine/threonine-protein Kinase 6 (AurA) (AID 2283142)
How it was run: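 Cell-free enzymatic assay with human Aurora A, 1 hour after dosing. Fluorescent substrate turnover detected after electrophoretic mobility shift separation of substrate and product. Screened at 25 uM, actives retested in concentration-response up to 50 uM.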

[4] = target: human MET Proto-Oncogene, Receptor Tyrosine Kinase (MET), MET (gene 4233) (UniProt P08581); assay: NVS_ENZ_hMet: NovaScreen (NVS) Enzymatic Assay for human MET Proto-Oncogene, Receptor Tyrosine Kinase (MET) (AID 2283180)
How it was run: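 Cell-free MET kinase assay using recombinant protein and fluorescent substrate, with mobility-shift separation; read 1 h after dosing. Primary duplicate at 25 uM; actives in singleton concentration-response to 50 uM maximum. Signal loss versus DMSO.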

[5] = target: human Phosphatase and Tensin Homolog (PTEN), PTEN (gene 5728) (UniProt P60484); assay: NVS_ENZ_hPTEN: NovaScreen (NVS) Enzymatic Assay for human Phosphatase and Tensin Homolog (PTEN) (AID 2283203)
How it was run: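 Cell-free recombinant human PTEN with fluorescent substrate; product separated by electrophoretic mobility shift and read by fluorescence 1 h after dosing. Primary screen in duplicate at 25 uM, actives followed in concentration series versus DMSO.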

[6] = target: Norway rat Vesicular Monoamine Transporter (VMAT2), neurotransmitter transporter, Slc18a2 (gene 25549) (UniProt Q01827); assay: NVS_TR_rVMAT2: NovaScreen (NVS) Transporter Assay for Norway rat Vesicular Monoamine Transporter (VMAT2), neurotransmitter transporter (AID 2283376);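 note: actives lower the bound radioligand signal below the DMSO level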
How it was run: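 Tissue: rat forebrain extract. Format: competitive radioligand binding, cell-free. Timepoint: 1 h. Readout: filter radiodetection/scintillation. Screen: 25 uM in duplicate, then concentration series for actives. Baseline: DMSO.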

[7] = target: human Ephrin type-A Receptor 2 (EphA2), EPHA2 (gene 1969) (UniProt P29317); assay: NVS_ENZ_hEphA2: NovaScreen (NVS) Enzymatic Assay for human Ephrin type-A Receptor 2 (EphA2) (AID 2283155)
How it was run: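 Cell-free recombinant EphA2 kinase with specific substrate, 1 h, fluorescence with electrophoretic mobility-shift separation of substrate and product. Primary screen at 25 uM in duplicate; hits retested in singleton concentration-response up to 50 uM, referenced to DMSO.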

[8] = target: Protein deacetylase HDAC6 (Homo sapiens) (UniProt Q9UBN7); assay: NVS_ENZ_hHDAC6: NovaScreen (NVS) Enzymatic Assay for human Histone Deacetylase 6 (HDAC6) (AID 2283164)
How it was run: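 Recombinant human HDAC6 with fluorescent substrate, 1 h; product separated from substrate by electrophoretic mobility shift. Primary screen in duplicate at 25 uM; actives retested singly in concentration-response up to 50 uM, fitted relative to DMSO.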

[9] = target: human IkappaB Kinase alpha (IKKa), CHUK (gene 1147) (UniProt O15111); assay: NVS_ENZ_hIKKa: NovaScreen (NVS) Enzymatic Assay for human IkappaB Kinase alpha (IKKa) (AID 2283167)
How it was run: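 Cell-free recombinant human IKKa with fluorescent substrate, product separated by electrophoretic mobility shift; read 1 hour after dosing. Primary screen duplicate at 25 uM, actives then concentration-response up to 50 uM; loss of signal relative to DMSO.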

[10] = target: human Fibroblast Growth Factor Receptor 1 (FGFR1), FGFR1 (gene 2260) (UniProt P11362); assay: NVS_ENZ_hFGFR1: NovaScreen (NVS) Enzymatic Assay for human Fibroblast Growth Factor Receptor 1 (FGFR1) (AID 2283159);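 note: hits lower the signal so potencies describe inhibitors of the kinase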
How it was run: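 Cell-free recombinant kinase with fluorescent substrate, product separated by electrophoretic mobility shift; read 1 hour after dosing, loss of signal relative to DMSO. Initial screen in duplicate at 25 uM, actives followed in concentration series.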

[11] = target: rat Acetylcholinesterase (AChE), Ache (gene 83817) (UniProt P37136); assay: NVS_ENZ_rAChE: NovaScreen (NVS) Enzymatic Assay for rat Acetylcholinesterase (AChE) (AID 2283233)
How it was run: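 Rat brain membrane acetylcholinesterase activity measured colorimetrically 0.33 h after compound addition, loss of signal relative to DMSO. Primary screen in duplicate at 25 uM; actives re-run as concentration-response with 50 uM top concentration.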

[12] = target: human Epidermal Growth Factor Receptor (EGFR), EGFR (gene 1956) (UniProt P00533); assay: NVS_ENZ_hEGFR: NovaScreen (NVS) Enzymatic Assay for human Epidermal Growth Factor Receptor (EGFR) (AID 2283151)
How it was run: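 Cell-free kinase assay, fluorescence plus electrophoretic mobility shift separating substrate and product, read 1 hour after dosing; loss of signal vs DMSO. Duplicate screen at 25 uM, then concentration-response to 50 uM.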

`Cc1ccc(C(C)C)cc1` was tested, and the AC50 [1] was inconclusive: 39.3 µM and the AC50 [2] was inconclusive: 25 µM.
`Cc1ccc2ncccc2c1` was tested, and the AC50 [3] was inconclusive: 0.2 µM, the AC50 [4] was inconclusive: 25 µM and the outcome [5] was “inactive”. For the same molecule, the AC50 [6] was inconclusive: 25 µM.
`O=C(OC[C@H]1O[C@@H](OC(=O)c2cc(O)c(O)c(OC(=O)c3cc(O)c(O)c(O)c3)c2)[C@H](OC(=O)c2cc(O)c(O)c(OC(=O)c3cc(O)c(O)c(O)c3)c2)[C@@H](OC(=O)c2cc(O)c(O)c(OC(=O)c3cc(O)c(O)c(O)c3)c2)[C@@H]1OC(=O)c1cc(O)c(O)c(OC(=O)c2cc(O)c(O)c(O)c2)c1)c1cc(O)c(O)c(OC(=O)c2cc(O)c(O)c(O)c2)c1` was tested, and the AC50 [1] was active: 4.65 µM and the outcome [6] was “inactive”.
In the case of `O=C1NS(=O)(=O)c2ccccc21`, the AC50 [1] is reported as inconclusive: 6.02 µM.
In the case of `CCc1c(C(=O)NN2CCCCC2)nn(-c2ccc(Cl)cc2Cl)c1-c1ccc(Br)cc1`, the AC50 [7] is reported as inconclusive: 0.171 µM, the AC50 [8] is reported as inconclusive: 1.52 µM and the outcome [9] is reported as “inactive”. For the same molecule, the AC50 [4] was inconclusive: 25 µM.
In the case of `CC(CO)OC(C)CO` (stereo unspecified) (tested in a mixture with another compound), the AC50 [1] is reported as inconclusive: 25 µM.
In the case of `CC[C@@H]1C[C@H](N(Cc2cc(C(F)(F)F)cc(C(F)(F)F)c2)C(C)=O)c2cc(C(F)(F)F)ccc2N1C(=O)OC(C)C`, the outcome [1] is reported as “inactive”, the AC50 [10] is reported as inconclusive: 25 µM and the AC50 [2] is reported as inconclusive: 14 µM.
For `CCC(O)=C1C(=O)CC(C(=O)O)CC1=O` (stereo unspecified), the outcome [1] was “inactive” and the AC50 [11] was inconclusive: 6.64 µM.
With `N#C[C@@H]1CC(F)(F)CN1C(=O)CNC1CC2CCC(C1)N2c1ncccn1` (stereo partly specified) the outcome [7] was “inactive”.
With `Cc1cccc2ccccc12` the outcome [1] was “inactive”.
For `C1CCC(SSC2CCCCC2)CC1`, the AC50 [12] was inconclusive: 25 µM and the outcome [5] was “inactive”.
With `CCCCCCCCCCCC[N+](C)(C)C` the AC50 [12] was inconclusive: 0.238 µM, the AC50 [5] was inconclusive: 25 µM and the outcome [11] was “inactive”.
